{"source": "PubChem BioAssay AID248", "about": "(DTP/NCI, 2004)", "test_system": "L1210 leukemia ip in BDF1 mice, survival T/C", "experiment": "NCI In Vivo Anticancer Drug Screen. Data for tumor model L1210 Leukemia (intraperitoneal) in B6D2F1 (BDF1) mice", "conditions": "T/C endpoint: mean survival time, higher T/C = longer survival", "note": "The list is a part of this screen's results and no random one: its compounds were picked by chemical class. Not every dose and run of a compound is shown. T/C gives the treated animals as a percentage of the vehicle group. For survival time, this PubChem deposit counts one and a half times the control or more as active, and values a quarter to a half above the control carry no call in these data; other NCI protocols may use other cut-offs. Some entries show no survivor count and are marked so; the dose need not have been tolerated. Schedule codes are those of the source, read here as Q, the interval in days (D) or hours (H), X, the number of doses. Some doses were run more than once; their values stand side by side, smallest first. Some schedule codes hold Z or #, which are not explained here.", "data": [{"compound": "ClCCNC(CCl)CCl", "values": [{"measurement": "T/C", "setting": "dose: 12.5 mg/kg/injection, schedule: Q01DX Z (ip), vehicle: other", "result": "96 % of control [survivor count not shown]"}, {"measurement": "T/C", "setting": "dose: 18.7 mg/kg/injection, schedule: Q01DX Z (ip), vehicle: saline", "result": "129 % of control [survivor count not shown]"}, {"measurement": "T/C", "setting": "dose: 25.0 mg/kg/injection, schedule: Q01DX Z (ip), vehicle: other", "result": "92 % of control [survivor count not shown]"}, {"measurement": "T/C", "setting": "dose: 37.5 mg/kg/injection, schedule: Q01DX Z (ip), vehicle: saline", "result": "113 % of control [survivor count not shown]"}, {"measurement": "T/C", "setting": "dose: 50.0 mg/kg/injection, schedule: Q01DX Z (ip), vehicle: other", "result": "112 % of control [survivor count not shown]"}, {"measurement": "T/C", "setting": "dose: 75.0 mg/kg/injection, schedule: Q01DX Z (ip), vehicle: saline", "result": "124 % of control [survivor count not shown]"}, {"measurement": "T/C", "setting": "dose: 100.0 mg/kg/injection, schedule: Q01DX Z (ip), vehicle: other", "result": "139 % of control [survivor count not shown]"}, {"measurement": "T/C", "setting": "dose: 100.0 mg/kg/injection, schedule: Q01DX Z (ip), vehicle: saline", "result": "102 % of control [survivor count not shown]"}, {"measurement": "T/C", "setting": "dose: 150.0 mg/kg/injection, schedule: Q01DX Z (ip), vehicle: saline", "result": "128 % of control [survivor count not shown]"}, {"measurement": "T/C", "setting": "dose: 176.0 mg/kg/injection, schedule: Q01DX001 (ip), vehicle: saline", "result": "102 % of control [survivor count not shown]"}, {"measurement": "T/C", "setting": "dose: 264.0 mg/kg/injection, schedule: Q01DX001 (ip), vehicle: saline", "result": "104 % of control [survivor count not shown]"}]}, {"compound": "OC1(C#CCN(CCCl)CCCl)CCCC1", "values": [{"measurement": "T/C", "setting": "dose: 15.0 mg/kg/injection, schedule: Q01DX001 (ip), vehicle: saline", "result": "123 % of control [survivor count not shown]"}, {"measurement": "T/C", "setting": "dose: 30.0 mg/kg/injection, schedule: Q01DX001 (ip), vehicle: saline", "result": "123 % of control [survivor count not shown]"}]}, {"compound": "O=Cc1cc(N(CCCl)CCCl)ccc1O", "values": [{"measurement": "T/C", "setting": "dose: 5.0 mg/kg/injection, schedule: Q01DX015 (ip), vehicle: carboxymethylcellulose (CMC)", "result": "104 [survivor count not shown] and 121 % of control [survivor count not shown]"}, {"measurement": "T/C", "setting": "dose: 9.0 mg/kg/injection, schedule: Q01DX015 (ip), vehicle: carboxymethylcellulose (CMC)", "result": "110 [survivor count not shown] and 144 % of control [survivor count not shown]"}, {"measurement": "T/C", "setting": "dose: 15.0 mg/kg/injection, schedule: Q01DX015 (ip), vehicle: carboxymethylcellulose (CMC)", "result": "122 [survivor count not shown] and 133 % of control [survivor count not shown]"}, {"measurement": "T/C", "setting": "dose: 22.0 mg/kg/injection, schedule: Q01DX001 (ip), vehicle: carboxymethylcellulose (CMC)", "result": "118 % of control [survivor count not shown]"}, {"measurement": "T/C", "setting": "dose: 25.0 mg/kg/injection, schedule: Q01DX015 (ip), vehicle: carboxymethylcellulose (CMC)", "result": "110 [survivor count not shown] and 111 % of control [survivor count not shown]"}, {"measurement": "T/C", "setting": "dose: 33.0 mg/kg/injection, schedule: Q01DX001 (ip), vehicle: carboxymethylcellulose (CMC)", "result": "116 % of control [survivor count not shown]"}, {"measurement": "T/C", "setting": "dose: 50.0 mg/kg/injection, schedule: Q01DX001 (ip), vehicle: carboxymethylcellulose (CMC)", "result": "123 [survivor count not shown] and 125 % of control [survivor count not shown]"}, {"measurement": "T/C", "setting": "dose: 75.0 mg/kg/injection, schedule: Q01DX001 (ip), vehicle: carboxymethylcellulose (CMC)", "result": "132 % of control [survivor count not shown]"}, {"measurement": "T/C", "setting": "dose: 100.0 mg/kg/injection, schedule: Q01DX001 (ip), vehicle: carboxymethylcellulose (CMC)", "result": "107 % of control [survivor count not shown]"}, {"measurement": "T/C", "setting": "dose: 400.0 mg/kg/injection, schedule: Q01DX001 (ip), vehicle: carboxymethylcellulose (CMC)", "result": "97 % of control [survivor count not shown]"}]}, {"compound": "CC(Cl)CN(CCCl)P1(=O)NCCCO1", "note": "(configuration not stated)", "values": [{"measurement": "T/C", "setting": "dose: 11.0 mg/kg/injection, schedule: Q01DX Z (ip), vehicle: methylcellulose (MC)", "result": "92 % of control [survivor count not shown]"}, {"measurement": "T/C", "setting": "dose: 22.0 mg/kg/injection, schedule: Q01DX Z (ip), vehicle: methylcellulose (MC)", "result": "105 % of control [survivor count not shown]"}, {"measurement": "T/C", "setting": "dose: 44.0 mg/kg/injection, schedule: Q01DX Z (ip), vehicle: methylcellulose (MC)", "result": "112 % of control [survivor count not shown]"}, {"measurement": "T/C", "setting": "dose: 88.0 mg/kg/injection, schedule: Q01DX Z (ip), vehicle: methylcellulose (MC)", "result": "128 % of control [survivor count not shown]"}, {"measurement": "T/C", "setting": "dose: 100.0 mg/kg/injection, schedule: Q01DX Z (ip), vehicle: methylcellulose (MC)", "result": "119 % of control [survivor count not shown]"}, {"measurement": "T/C", "setting": "dose: 200.0 mg/kg/injection, schedule: Q01DX Z (ip), vehicle: methylcellulose (MC)", "result": "90 % of control [survivor count not shown]"}]}, {"compound": "O=C(O)Cc1c[nH]c2ccc(N(CCCl)CCCl)cc12", "values": [{"measurement": "T/C", "setting": "dose: 0.06 mg/kg/injection, schedule: Q01DX009 (ip), vehicle: saline", "result": "111 % of control [survivor count not shown]"}, {"measurement": "T/C", "setting": "dose: 0.12 mg/kg/injection, schedule: Q01DX009 (ip), vehicle: saline", "result": "102 % of control [survivor count not shown]"}, {"measurement": "T/C", "setting": "dose: 0.25 mg/kg/injection, schedule: Q01DX009 (ip), vehicle: saline", "result": "106 % of control [survivor count not shown]"}, {"measurement": "T/C", "setting": "dose: 0.4 mg/kg/injection, schedule: Q01DX009 (ip), vehicle: Klucel (hydroxypropylcellulose) (HPC)", "result": "123 % of control [survivor count not shown]"}, {"measurement": "T/C", "setting": "dose: 0.5 mg/kg/injection, schedule: Q01DX009 (ip), vehicle: saline", "result": "146 % of control [survivor count not shown]"}, {"measurement": "T/C", "setting": "dose: 0.8 mg/kg/injection, schedule: Q01DX009 (ip), vehicle: Klucel (hydroxypropylcellulose) (HPC)", "result": "123 % of control [survivor count not shown]"}, {"measurement": "T/C", "setting": "dose: 1.0 mg/kg/injection, schedule: Q01DX009 (ip), vehicle: saline", "result": "164 % of control [survivor count not shown]"}, {"measurement": "T/C", "setting": "dose: 1.5 mg/kg/injection, schedule: Q04DX003 (ip), vehicle: Klucel (hydroxypropylcellulose) (HPC)", "result": "117 % of control [survivor count not shown]"}, {"measurement": "T/C", "setting": "dose: 1.6 mg/kg/injection, schedule: Q01DX009 (ip), vehicle: Klucel (hydroxypropylcellulose) (HPC)", "result": "131 % of control [survivor count not shown]"}, {"measurement": "T/C", "setting": "dose: 2.0 mg/kg/injection, schedule: Q01DX009 (ip), vehicle: saline", "result": "147 % of control [survivor count not shown]"}, {"measurement": "T/C", "setting": "dose: 2.5 mg/kg/injection, schedule: Q01DX001 (ip), vehicle: saline", "result": "116 % of control [survivor count not shown]"}, {"measurement": "T/C", "setting": "dose: 3.1 mg/kg/injection, schedule: Q01DX009 (ip), vehicle: Klucel (hydroxypropylcellulose) (HPC)", "result": "153 % of control [survivor count not shown]"}, {"measurement": "T/C", "setting": "dose: 3.1 mg/kg/injection, schedule: Q04DX003 (ip), vehicle: Klucel (hydroxypropylcellulose) (HPC)", "result": "134 % of control [survivor count not shown]"}, {"measurement": "T/C", "setting": "dose: 4.0 mg/kg/injection, schedule: Q01DX009 (ip), vehicle: saline", "result": "104 % of control [survivor count not shown]"}, {"measurement": "T/C", "setting": "dose: 5.0 mg/kg/injection, schedule: Q01DX001 (ip), vehicle: saline", "result": "130 [survivor count not shown] and 165 % of control [survivor count not shown]"}, {"measurement": "T/C", "setting": "dose: 6.2 mg/kg/injection, schedule: Q01DX009 (ip), vehicle: Klucel (hydroxypropylcellulose) (HPC)", "result": "103 % of control [survivor count not shown]"}, {"measurement": "T/C", "setting": "dose: 6.2 mg/kg/injection, schedule: Q04DX003 (ip), vehicle: Klucel (hydroxypropylcellulose) (HPC)", "result": "161 % of control [survivor count not shown]"}, {"measurement": "T/C", "setting": "dose: 8.0 mg/kg/injection, schedule: Q01DX009 (ip), vehicle: saline", "result": "158 % of control [survivor count not shown]"}, {"measurement": "T/C", "setting": "dose: 10.0 mg/kg/injection, schedule: Q01DX001 (ip), vehicle: saline", "result": "122 % of control [survivor count not shown]"}, {"measurement": "T/C", "setting": "dose: 12.5 mg/kg/injection, schedule: Q04DX003 (ip), vehicle: Klucel (hydroxypropylcellulose) (HPC)", "result": "115 [survivor count not shown] and 167 % of control [survivor count not shown]"}, {"measurement": "T/C", "setting": "dose: 15.0 mg/kg/injection, schedule: Q01DX009 (ip), vehicle: saline", "result": "154 % of control [survivor count not shown]"}, {"measurement": "T/C", "setting": "dose: 20.0 mg/kg/injection, schedule: Q01DX001 (ip), vehicle: saline", "result": "130 % of control [survivor count not shown]"}, {"measurement": "T/C", "setting": "dose: 40.0 mg/kg/injection, schedule: Q01DX001 (ip), vehicle: saline", "result": "146 % of control [survivor count not shown]"}]}]}
